# Assay results as given in the supplement of paper PMC8728848.
# The list shows a part of the results.
# B1: YghJ (Escherichia coli), E3PJ90 (protein)
# chain: MNKKFKYKKSLLAAILSATLLAGCDGGGSGSSSDTPPVDSGTGSLPEVKPDPTPNPEPTPEPTPDPEPTPEPIPDPEPTPEPEPEPVPTKTGYLTLGGSQRVTGATCNGESSDGFTFKPGEDVTCVAGNTTIATFNTQSEAARSLRAVEKVSFSLEDAQELAGSDDKKSNAVSLVTSSNSCPANTEQVCLTFSSVIESKRFDSLYKQIDLAPEEFKKLVNEEVENNAATDKAPSTHTSPVVPVTTPGTKPDLNASFVSANAEQFYQYQPTEIILSEGRLVDSQGYGVAGVNYYTNSGRGVTGENGEFSFSWGEAISFGIDTFELGSVRGNKSTIALTELGDEVRGANIDQLIHRYSTTGQNNTRVVPDDVRKVFAEYPNVINEIINLSLSNGATLGEGEQVVNLPNEFIEQFNTGQAKEIDTAICAKTDGCNEARWFSLTTRNVNDGQIQGVINKLWGVDTNYKSVSKFHVFHDSTNFYGSTGNARGQAVVNISNAAFPILMARNDKNYWLAFGEKRAWDKNELAYITEAPSIVRPENVTRETASFNLPFISLGQVGDGKLMVIGNPHYNSILRCPNGYSWNGGVNKDGQCTLNSDPDDMKNFMENVLRYLSNDRWLPDAKSSMTVGTNLETVYFKKHGQVLGNSAPFAFHKDFTGITVKPMTSYGNLNPDEVPLLILNGFEYVTQWGSDPYSIPLRADTSKPKLTQQDVTDLIAYMNKGGSVLIMENVMSNLKEESASGFVRLLDAAGLSMALNKSVVNNDPQGYPDRVRQRRSTPIWVYERYPAVDGKPPYTIDDTTKEVIWKYQQENKPDDKPKLEVASWQEEVEGKQVTQFAFIDEADHKTPESLAAAKQRILDAFPGLEVCKDSDYHYEVNCLEYRPGTDVPVTGGMYVPQYTQLDLSADTAKAMLQAADLGTNIQRLYQHELYFRTNGRQGERLNSVDLERLYQNMSVWLWNETKYRYEEGKEDELGFKTFTEFLNCYTNNAYVGTQCSAELKKSLIDNKMIYGEESSKAGMMNPSYPLNYMEKPLTRLMLGRSWWDLNIKVDVEKYPGVVNTNGETVTQNINLYSAPTKWFAGNMQSTGLWAPAQQEVSIESKSTVPVTVTVALADDLTGREKHEVSLNRPPRVTKTYDLKANDKVTFKVPYGGLIYIKGDSKEVQSADFTFTGVVKAPFYKDGKWQHDLNSPAPLGELESASFVYTTPKKNLNASNYTGGLEQFANDLDTFASSMNDFYGRDSEDGKHRMFTYKNLPGHKHRFANDVQISIGDAHSGYPVMNSSFSPNSTTLPTTPLNDWLIWHEVGHNAAETPLTVPGATEVANNVLALYMQDRYLGKMNRVADDITVAPEYLEESNGQAWARGGAGDRLLMYAQLKEWAEKNFDIKKWYPDGTPLPEFYSEREGMKGWNLFQLMHRKARGDEVSNDKFGGKNYCAESNGNAADTLMLCASWVAQTDLSEFFKKWNPGANAYQLPGASEMSFEGGVSQSAYNTLASLDLPKPEQGPETINQVTEHKMSAE
# Assays:
# Assay in all cases: glycan array binding signal (z-score within array); higher = stronger binding
# Settings in all cases: glycan notation: IUPAC condensed, linker removed
# Gal(b1-4)Glc = molecular target: Gal(b1-4)Glc
# Outline: (§1)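 Glycan array data came from 3228 arrays in the Consortium for Functional Glycomics database, and only arrays with an available protein sequence were kept. Glycan names were put into IUPAC-condensed notation, and columns mapping to the same glycan were averaged. The binding signal is a within-array Z-score, averaged across arrays of one protein sequence run at different concentrations or buffers and across linkers. A negative Z-score can be read as non-binding.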
# Gal(b1-4)Glc6S = molecular target: Gal(b1-4)Glc6S
# Outline: as §1
# Gal(b1-4)GlcNAc = molecular target: Gal(b1-4)GlcNAc
# Outline: as §1
# [1] = molecular target: Gal(b1-4)GlcNAc(a1-6)Gal(b1-4)GlcNAc
# Outline: as §1
# Gal(b1-4)GlcNAc(b1-2)Man = molecular target: Gal(b1-4)GlcNAc(b1-2)Man
# Outline: as §1
# [2] = molecular target: Gal(b1-4)GlcNAc(b1-2)Man(a1-3)Man(b1-4)GlcNAc(b1-4)GlcNAc
# Outline: as §1
# [3] = molecular target: Gal(b1-4)GlcNAc(b1-2)Man(a1-3)[Gal(b1-4)GlcNAc(b1-2)Man(a1-6)]Man(b1-4)GlcNAc(b1-4)GlcNAc
# Outline: as §1
# [4] = molecular target: Gal(b1-4)GlcNAc(b1-2)Man(a1-3)[Gal(b1-4)GlcNAc(b1-2)Man(a1-6)]Man(b1-4)GlcNAc(b1-4)[Fuc(a1-6)]GlcNAc
# Outline: as §1
# [5] = molecular target: Gal(b1-4)GlcNAc(b1-2)Man(a1-3)[Gal(b1-4)GlcNAc(b1-2)Man(a1-6)][Gal(b1-4)GlcNAc(b1-4)]Man(b1-4)GlcNAc(b1-4)[Fuc(a1-6)]GlcNAc
# Outline: as §1
# [6] = molecular target: Gal(b1-4)GlcNAc(b1-2)Man(a1-3)[Gal(b1-4)GlcNAc(b1-2)Man(a1-6)][GlcNAc(b1-4)]Man(b1-4)GlcNAc(b1-4)[Fuc(a1-6)]GlcNAc
# Outline: as §1
# [7] = molecular target: Gal(b1-4)GlcNAc(b1-2)Man(a1-3)[GlcNAc(b1-2)Man(a1-6)]Man(b1-4)GlcNAc(b1-4)GlcNAc
# Outline: as §1
# [8] = molecular target: Gal(b1-4)GlcNAc(b1-2)Man(a1-3)[GlcNAc(b1-4)][Gal(b1-4)GlcNAc(b1-2)Man(a1-6)]Man(b1-4)GlcNAc(b1-4)GlcNAc
# Outline: as §1
# [9] = molecular target: Gal(b1-4)GlcNAc(b1-2)Man(a1-3)[Man(a1-6)]Man(b1-4)GlcNAc(b1-4)GlcNAc
# Outline: as §1
# [10] = molecular target: Gal(b1-4)GlcNAc(b1-2)Man(a1-6)Man(b1-4)GlcNAc(b1-4)GlcNAc
# Outline: as §1
# [11] = molecular target: Gal(b1-4)GlcNAc(b1-2)Man(a1-6)[GlcNAc(b1-2)Man(a1-3)]Man(b1-4)GlcNAc(b1-4)GlcNAc
# Outline: as §1
# [12] = molecular target: Gal(b1-4)GlcNAc(b1-2)Man(a1-6)[Man(a1-3)]Man(b1-4)GlcNAc(b1-4)GlcNAc
# Outline: as §1
# [13] = molecular target: Gal(b1-4)GlcNAc(b1-2)[Gal(b1-4)GlcNAc(b1-4)]Man(a1-3)[Gal(b1-4)GlcNAc(b1-2)Man(a1-6)]Man(b1-4)GlcNAc(b1-4)GlcNAc
# Outline: as §1
# [14] = molecular target: Gal(b1-4)GlcNAc(b1-2)[Gal(b1-4)GlcNAc(b1-4)]Man(a1-3)[Gal(b1-4)GlcNAc(b1-2)[Gal(b1-4)GlcNAc(b1-6)]Man(a1-6)]Man(b1-4)GlcNAc(b1-4)GlcNAc
# Outline: as §1
# [15] = molecular target: Gal(b1-4)GlcNAc(b1-2)[Gal(b1-4)GlcNAc(b1-4)]Man(a1-3)[GlcNAc(b1-4)][Gal(b1-4)GlcNAc(b1-2)Man(a1-6)]Man(b1-4)GlcNAc(b1-4)GlcNAc
# Outline: as §1
# [16] = molecular target: Gal(b1-4)GlcNAc(b1-2)[Gal(b1-4)GlcNAc(b1-4)]Man(a1-3)[GlcNAc(b1-4)][Gal(b1-4)GlcNAc(b1-2)[Gal(b1-4)GlcNAc(b1-6)]Man(a1-6)]Man(b1-4)GlcNAc(b1-4)GlcNAc
# Outline: as §1
# [17] = molecular target: Gal(b1-4)GlcNAc(b1-2)[Gal(b1-4)GlcNAc(b1-6)]Man(a1-6)[Gal(b1-4)GlcNAc(b1-2)Man(a1-3)]Man(b1-4)GlcNAc(b1-4)GlcNAc
# Outline: as §1
# [18] = molecular target: Gal(b1-4)GlcNAc(b1-2)[Gal(b1-4)GlcNAc(b1-6)]Man(a1-6)[Gal(b1-4)GlcNAc(b1-2)Man(a1-3)]Man(b1-4)GlcNAc(b1-4)[Fuc(a1-6)]GlcNAc
# Outline: as §1
# [19] = molecular target: Gal(b1-4)GlcNAc(b1-2)[Gal(b1-4)GlcNAc(b1-6)]Man(a1-6)[GlcNAc(b1-4)][Gal(b1-4)GlcNAc(b1-2)Man(a1-3)]Man(b1-4)GlcNAc(b1-4)GlcNAc
# Outline: as §1
# [20] = molecular target: Gal(b1-4)GlcNAc(b1-2)[Gal(b1-4)GlcNAc(b1-6)]Man(a1-6)[GlcNAc(b1-4)][Gal(b1-4)GlcNAc(b1-2)[Gal(b1-4)GlcNAc(b1-4)]Man(a1-3)]Man(b1-4)GlcNAc(b1-4)[Fuc(a1-6)]GlcNAc
# Outline: as §1
# [21] = molecular target: Gal(b1-4)GlcNAc(b1-3)Gal(b1-3)GalNAc
# Outline: as §1
# [22] = molecular target: Gal(b1-4)GlcNAc(b1-3)Gal(b1-3)GlcNAc
# Outline: as §1
# [23] = molecular target: Gal(b1-4)GlcNAc(b1-3)Gal(b1-4)Glc
# Outline: as §1
# [24] = molecular target: Gal(b1-4)GlcNAc(b1-3)Gal(b1-4)GlcNAc
# Outline: as §1
# [25] = molecular target: Gal(b1-4)GlcNAc(b1-3)Gal(b1-4)GlcNAc(b1-2)Man(a1-3)[Gal(b1-4)GlcNAc(b1-3)Gal(b1-4)GlcNAc(b1-2)Man(a1-6)]Man(b1-4)GlcNAc(b1-4)GlcNAc
# Outline: as §1
# [26] = molecular target: Gal(b1-4)GlcNAc(b1-3)Gal(b1-4)GlcNAc(b1-2)Man(a1-3)[Gal(b1-4)GlcNAc(b1-3)Gal(b1-4)GlcNAc(b1-2)Man(a1-6)]Man(b1-4)GlcNAc(b1-4)[Fuc(a1-6)]GlcNAc
# Outline: as §1
binder,measurement,setting,value
B1,glycan array binding signal (z-score),Gal(b1-4)Glc,0.319
same,glycan array binding signal (z-score),Gal(b1-4)Glc6S,-0.439
same,glycan array binding signal (z-score),Gal(b1-4)GlcNAc,-0.195
same,glycan array binding signal (z-score),[1],0.239
same,glycan array binding signal (z-score),Gal(b1-4)GlcNAc(b1-2)Man,-0.325
same,glycan array binding signal (z-score),[2],1.19
same,glycan array binding signal (z-score),[3],-0.174
same,glycan array binding signal (z-score),[4],2.37
same,glycan array binding signal (z-score),[5],-0.289
same,glycan array binding signal (z-score),[6],0.597
same,glycan array binding signal (z-score),[7],-0.144
same,glycan array binding signal (z-score),[8],0.81
same,glycan array binding signal (z-score),[9],-0.741
same,glycan array binding signal (z-score),[10],-0.601
same,glycan array binding signal (z-score),[11],-0.15
same,glycan array binding signal (z-score),[12],0.902
same,glycan array binding signal (z-score),[13],-0.243
same,glycan array binding signal (z-score),[14],-0.981
same,glycan array binding signal (z-score),[15],1.06
same,glycan array binding signal (z-score),[16],0.332
same,glycan array binding signal (z-score),[17],0.576
same,glycan array binding signal (z-score),[18],-1.68
same,glycan array binding signal (z-score),[19],-0.084
same,glycan array binding signal (z-score),[20],-0.025
same,glycan array binding signal (z-score),[21],-0.534
same,glycan array binding signal (z-score),[22],-0.474
same,glycan array binding signal (z-score),[23],0.172
same,glycan array binding signal (z-score),[24],0.369
same,glycan array binding signal (z-score),[25],0.91
same,glycan array binding signal (z-score),[26],1.13

# Two records drawn at random from the list so far, as already listed:
binder,measurement,setting,value
B1,glycan array binding signal (z-score),[21],-0.534
same,glycan array binding signal (z-score),[26],1.13
